Laboratory results: patent US6913882B2, “Methods of screening for B cell activity modulators” (Affymetrix, Inc., priority 1999, dated 2005)
For at least one compound, name, drawing or mass did not settle the structure.

What was measured:
CD69 and B7.2 = assay: Upregulation of surface activation markers on activated B cells; assay type: cell-based; conditions: FIG. 4B
NFAT, NFkB, JNK, Erk = assay: Signaling pathways in B cells stimulated in the presence of FK506; assay type: cell-based
early response genes = assay: B cell activation (HEL or anti-mu, 1 hr) with FK506, EGTA or PD98059, early response gene expression on arrays; assay type: cell-based, mice
Description: Splenic B cells from non-transgenic, Ig^HEL or sHEL/Ig^HEL transgenic mice were purified at room temperature in 1% bovine calf serum in RPMI. The spleen cells were stained with CD4, CD8 and Mac-1 FITC conjugated antibodies (Caltag) and depleted of T cells and macrophages with sheep anti-FITC magnetic beads (Perseptive Biosystems). The remaining cells were 85-95% B220 positive and were either lysed immediately (naive and tolerant cell preps) or stimulated in RPMI with 1% serum at 37° C. at 2-3×10^6 cells/ml. For stimulation experiments, HEL (Sigma) was used at 500 ng/ml, goat anti-mu (Jackson Labs) at 10 μg/ml, FK506 at 10 ng/ml, PD98059 (NEB) at 20 μM unless stated otherwise, ionomycin at 1 μM and EGTA at 3 mM. Cells were preincubated for 45 minutes with PD98059, 15 minutes with FK506 and 2 minutes with EGTA before addition of HEL or anti-mu. Mock stimulations were performed by addition of carrier alone for stimuli or inhibitors. At the end of the incubation, the cells were pelleted by centrifugation, resuspended in a minimal volume of medium (about 50 μl) by pipetting and lysed in 0.5-1 ml Trizol (Gibco BRL).
Trizol lysates were phenol-extracted and precipitated with isopropanol. Poly A+ RNA was purified with Oligotex (Qiagen). cDNA was synthesised with a Superscriptll cDNA synthesis kit (Gibco BRL) using a T7:(dT)24 oligo to prime the first strand and purified by phenol extraction and ethanol precipitation. The cDNA was used as a template for in vitro transcription (IVT) using the Megascript system (Ambion) with the inclusion of biotinylated CTP and UTP. The IVT product was separated from unincorporated nucleotides using a RNeasy column (Qiagen) and was fragmented with 150 mM magnesium chloride at 95° C. Fragmented cRNA was hybridised in a volume of 200 μl 1 M sodium chloride, 10 mM Tris pH 7.4, 0.005% Triton X100 including 1 mg/ml BSA, 0.1 mg/ml herring sperm DNA and bacterial transcripts spiked at known concentrations. Hybridization was for 12-16 hours at 40° C. with rotation. The arrays were incubated at 50° C. for 1 hr then washed to 0.5×SSPE, room temperature. Biotinylated hybridised cRNA was developed by staining with strepavidin-PE and the chips were scanned with a Molecular Dynamics scanner (see also Lipshutz, R. J. et al., Nat. Genet (1999) 21: 20-4; this reference and references cited therein are herein incorporated by reference).
Each gene on the arrays was tiled as a collection of approximately 20 probe pairs. Each probe pair contains a 25 mer oligo that is exactly complementary to the transcript (the perfect match oligo) and a second oligo that contains a single base mismatch at the middle base. The perfect match—mismatch intensities (PM—MM) were calculated for each probe pair for each gene in each experiment. For each probe pair, the PM—MM values were compared by t test between the two conditions (e.g. resting vs stimulated, matched t test; naive vs anergic, unmatched t test). Positive t values associated with a probability of less than 0.1 were scored as increased, negative t values with a probability of less than 0.1 were scored as decreased. The number of increased and decreased probe pairs associated with each gene was determined and called npos and nneg respectively (of the approximately 20 probe pairs tiled for each gene). The distribution of npos and nneg is binomial where p=0.1 and n=number of probe pairs for that gene. The probability of scoring npos or more of the total number of probe pairs was determined. The same analysis was done for decreased genes using nneg. A probability value was chosen so that the probability of one or more false positive in any query was less than 5% after correcting for the number of genes queried. […] The adjusted 5% probability for 280 trials is 0.00018, and 59 of the 280 changes were significant at this level. […]

Structure (SMILES): C=CC[C@@H]1/C=C(\C)C[C@H](C)C[C@H](OC)[C@H]2O[C@@](O)(C(=O)C(=O)N3CCCC[C@H]3C(=O)O[C@H](/C(C)=C/[C@@H]3CC[C@@H](O)[C@H](OC)C3)[C@H](C)[C@@H](O)CC1=O)[C@H](C)C[C@@H]2OC [FK506]
- upregulation of surface activation markers CD69 and B7.2 (CD69 and B7.2): uninhibited
- activation of signaling pathways in stimulated cells (NFAT, NFkB, JNK, Erk): do not activate NFAT, NFkB nor JNK though signaling through Erk is intact
- changes in transcripts other than those altered in the antigen activation response (early response genes): no FK506-induced changes
- effect on early response gene gadd 153 (early response genes; 10 ng/ml FK506, 1 hr): superinduced
- effect on response genes Egr-2 and CD72 (also triggered by self-antigen) (early response genes; 10 ng/ml FK506, 1 hr): blocked
- fraction of the 59 genes increasing or decreasing 1 hr after B lymphocyte activation that were efficiently suppressed (early response genes; 10 ng/ml FK506, 1 hr): one third
- sensitivity of induction of three transcripts (Egr-1, NAB2 and Gfi-1) upregulated by both self and foreign antigen (early response genes; FIG. 3D (PD98059), FIG. 3A (FK506)): insensitive
- downregulation of LKLF (early response genes; FIG. 4B): partially inhibited
- upregulation of c-myc, LSIRF and A1 in activated cells (early response genes; FIG. 4B): partially blocked
- antigen induced upregulation of MyD 116 transcript (early response genes; FK506 n=5, EGTA n=2): repressed
- upregulation of A1 (early response genes; antigen stimulation): sensitive
